Test results published in patent publication US6277861A, “Anti-convulsant isoquinolyl-benzamide derivatives” (SmithKline Beecham, p.l.c., priority 1997, dated 2001).
Where a name gives a salt, the structure may show the parent alone. Some of these results come from one statement about several compounds together.

These molecules were tested against novel receptor obtainable from rat forebrain tissue ([3H]-Compound A binding site) (assay: Radioligand binding assay, displacement of [3H]-Compound A from rat forebrain tissue). Conditions: competition with [3H]-Compound A (usually 20 nM).
Description: WO 92/22293 (SmithKline Beecham) discloses compounds having anti-convulsantactivity, including inter alia the compound trans-(+)-6-acetyl-4S-(4-fluorobenzoylamino)-3,4-dihydro-2,2-dimethyl-2H-1-benzopyran-3R-ol (hereinafter referred to as Compound A). […] The affinity of test compounds to the novel receptor site is assessed as follows. Whole forebrain tissue is obtained from rats. The tissue is first homogenised in buffer (usually 50 mM Tris/HCl, pH 7.4). The homogenised tissue is washed by centrifugation and resuspension in the same buffer, then stored at -70° C. until used. To carry out the radioligand binding assay, aliquots of tissue prepared as above (usually at a concentration of 1-2 mg protein/ml) are mixed with aliquots of [3H]-Compound A dissolved in buffer. The final concentration of [3H]-Compound A in the mixture is usually 20 nM. The mixture is incubated at room temperature for 1 hour. [3H]-Compound A bound to the tissue is then separated from unbound [3H]-Compound A by filtration through Whatman GF/B glass fibre filters. The filters are then washed rapidly with ice-cold buffer. The amount of radioactivity bound to the tissue trapped on the filters is measured by addition of liquid scintillation cocktail to the filters followed by counting in a liquid scintillation counter. In order to determine the amount of "specific" binding of [3H]-Compound A, parallel assays are carried out as above in which [3H]-Compound A and tissue are incubated together in the presence of unlabelled Compound A (usually 3 μM). The amount of binding of [3H]-Compound A remaining in the presence of this unlabelled compound is defined as "non-specific" binding. This amount is subtracted from the total amount of [3H]-Compound A binding (i.e. that present in the absence of unlabelled compound) to obtain the amount of "specific" binding of [3H]-Compound A to the novel site. The affinity of the binding of test compounds to the novel site can be estimated by incubating together [3H]-Compound A and tissue in the presence of a range of concentrations of the compound to be tested. The decrease in the level of specific [3H]-Compound A binding as a result of competition by increasing concentrations of the compound under test is plotted graphically, and non-linear regression analysis of the resultant curve is used to provide an estimate of compound affinity in terms of pKi value.

pKi values, greater than 7:
CCOc1cc(OC)c(C(=O)Nc2cccc3c2CCNC3C)cc1Cl (racemic) [Example 1, (±) N-(1-Methyl-1,2,3,4-tetrahydroisoquinolin-5-yl)-5-chloro-4-ethoxy-2-methoxybenzamide, trifluoroacetate]
COc1cc(OC)c(C(=O)Nc2cccc3c2CCN(C)C3C)cc1Br (racemic) [Example 2, (±) N-(1,2-Dimethyl-1,2,3,4-tetrahydroisoquinolin-5-yl)-5-bromo-2,4-dimethoxybenzamide, hydrochloride]
CCOc1cc(OC)c(C(=O)Nc2cccc3c2CCN(C)C3C)cc1Cl (racemic) [Example 3, (±) N-(1,2-Dimethyl-1,2,3,4-tetrahydroisoquinolin-5-yl)-5-chloro-4-ethoxy-2-methoxybenzamide, hydrochloride]
COc1cc(OC(C)C)c(Cl)cc1C(=O)Nc1cccc2c1CCN(C)C2C (racemic) [Example 4, (±) N-(1,2-Dimethyl-1,2,3,4-tetrahydroisoquinolin-5-yl)-5-chloro-4-iso-propoxy-2-methoxybenzamide, hydrochloride]
COc1cc(C(C)(C)C)ccc1C(=O)Nc1cccc2c1CCN(C)C2C (racemic) [Example 5, (±) N-(1,2-Dimethyl-1,2,3,4-tetrahydroisoquinolin-5-yl)-tert-butyl-2-methoxybenzamide, hydrochloride]
COc1cc(C)c(C(F)(F)F)cc1C(=O)Nc1cccc2c1CCN(C)C2C (racemic) [Example 6, (±) N-(1,2-Dimethyl-1,2,3,4-tetrahydroisoquinolin-5-yl)-5-trifluoromethyl-2-methoxy-4-methyl benzamide, hydrochloride]
CCc1ccc(C(=O)Nc2ccc3c(c2)C(C)N(C)CC3)cc1Br (racemic) [Example 12, (±) N-(1,2-Dimethyl-4H-isoquinolin-7-yl)-3-bromo-4-ethylbenzamide]
CCOc1ccc(C(=O)Nc2ccc3c(c2)C(C)N(C)CC3)cc1Br (racemic) [Example 13, (±) (N-(1,2-Dimethyl-4H-isoquinolin-7-yl)-3-bromo-4-ethoxybenzamide]
COc1ccc(C(=O)Nc2ccc3c(c2)CN(C)CC3(C)C)cc1C(F)(F)F.Cl [Example 7, N-(2,4,4-Trimethyl-4H-isoquinolin-7-yl)-4-methoxy-3-trifluoromethylbenzamide, hydrochloride]
CC(C)c1ccc(C(=O)Nc2ccc3c(c2)CN(C)CC3(C)C)cc1C#N [Example 8, N-(2,4,4-Trimethyl-4H-isoquinolin-7-yl)-3-cyano-4-iso-propylbenzamide]
CCc1ccc(C(=O)Nc2ccc3c(c2)CN(C)CC3(C)C)cc1Br [Example 9, N-(2,4,4,-Trimethyl-4H-isoquinolin-7-yl)-3-bromo-4-ethylbenzamide]
CCOc1ccc(C(=O)Nc2ccc3c(c2)CN(C)CC3(C)C)cc1Br [Example 10, N-(2,4,4-Trimethyl-4H-isoquinolin-7-yl)-3-bromo-4-ethoxybenzamide]
CC(C)Oc1ccc(C(=O)Nc2ccc3c(c2)CN(C)CC3(C)C)cc1Cl [Example 11, N-(2,4,4-Trimethyl-4H-isoquinolin-7-yl)-3-chloro--4-iso-propoxybenzamide]
COc1ccc(C(=O)Nc2ccc3c(c2)C(C)(C)N(C)CC3)cc1C(F)(F)F [Example 14, N-(1,1,2-Trimethyl-4H-isoquinolin-7-yl)-4-methoxy-3-trifuoromethylbenzamide]
